# According to patent US20120232251A1, “GLUCOSE SENSOR” (King's College London, priority 2009, published 2012):
# Key:
# Format in all cases: binding
# [1] = Steady-state fluorescence intensity response of badan-labelled GBP mutants to glucose in PBS
# Protocol: (§1) To label GBP mutants with badan, 50 μM protein was dissolved in 5 mM Tris(2-carboxyethyl)phosphine in phosphate-buffered saline (PBS) pH 7.4, and then a 10-fold excess of dye (500 μM) was added and the mixture incubated overnight at 4° C., after which it was purified on a Sephadex G-25 gel-filtration column.
# (§2) Steady-state fluorescence intensity was recorded on a Perkin-Elmer LS50B fluorimeter (Perkin Elmer Instruments, Beaconsfield, UK). The excitation and emission wavelengths of badan were 400 and 550 nm respectively. All data were obtained at room temperature using quartz cuvettes with sample volume of 100 μL. The labelled protein was incubated with increasing amounts of D-glucose for 15-20 min at room temperature before fluorescence was recorded.
# (§3) The binding constant, Kd, was calculated from the sigmoidal dose-response curves using Prism 5 software (GraphPad, San Diego, Calif., USA). Lifetime values were obtained from fluorescence transients using the TR12 analysis package (courtesy of Dr. Paul Barber, Gray Cancer Institute of Radiation Oncology and Biology, Oxford University, Oxford, UK). Global analysis was applied to the entire data set of twelve transients as described for the H152C mutant previously.
# [2] = Fluorescence lifetime measurements (TCSPC) of GBP-badan with addition of glucose in PBS
# [3] = Steady-state fluorescence intensity response of badan-labelled GBP mutant to glucose in serum; details: serum from healthy individuals vs PBS (FIG. 3), listed as H152C/A213R/L238S-badan
# Protocol: as §1
# Venous blood samples from healthy volunteers were collected in Vacuette tubes. The specimens were incubated at room temperature for 4 days to allow blood clotting and glycolysis. The samples were then centrifuged at 3500 g for 20 min and serum removed, pooled and stored until use. The glucose concentrations of serum samples were determined using a hexokinase-based assay (Sigma).
# as §2, with “All data were obtained at room temperature using quartz cuvettes with sample volume of 100 μL.” left out
# as §3, with “Global analysis was applied to the entire data set of twelve transients as described for the H152C mutant previously.” left out
# [4] = global analysis of twelve transients, bi-exponential model, PBS
substance,measurement,setting,value
H152C/A213R/L238S: E. coli glucose/galactose binding protein triple mutant labelled at cysteine 152 with badan,change in Kd compared with single mutant H152C-badan,[1]; FIG. 2,three-order of magnitude
same,operating range (glucose concentration),"[1]; badan-labelled, glucose response curve (FIG. 2)",1 to 100 mM
same,fluorescence lifetime on glucose addition (in words),[2]; badan-labelled,increased markedly
same,long fluorescence lifetime state,[2]; [4],3.1 ns
same,short fluorescence lifetime state,[2]; [4],0.9 ns
same,fluorescence response to glucose in PBS compared with serum (in words),[3],similar
